Assay results taken from the supplement of paper PMC10849652.
Some of the results follow.

By UniProt entry, the sequences of proteins in these tests, tags left out. Where a name states a change or a piece, a line headed by the entry shows the natural chain unless it says otherwise.
UniProt Q9UHV7: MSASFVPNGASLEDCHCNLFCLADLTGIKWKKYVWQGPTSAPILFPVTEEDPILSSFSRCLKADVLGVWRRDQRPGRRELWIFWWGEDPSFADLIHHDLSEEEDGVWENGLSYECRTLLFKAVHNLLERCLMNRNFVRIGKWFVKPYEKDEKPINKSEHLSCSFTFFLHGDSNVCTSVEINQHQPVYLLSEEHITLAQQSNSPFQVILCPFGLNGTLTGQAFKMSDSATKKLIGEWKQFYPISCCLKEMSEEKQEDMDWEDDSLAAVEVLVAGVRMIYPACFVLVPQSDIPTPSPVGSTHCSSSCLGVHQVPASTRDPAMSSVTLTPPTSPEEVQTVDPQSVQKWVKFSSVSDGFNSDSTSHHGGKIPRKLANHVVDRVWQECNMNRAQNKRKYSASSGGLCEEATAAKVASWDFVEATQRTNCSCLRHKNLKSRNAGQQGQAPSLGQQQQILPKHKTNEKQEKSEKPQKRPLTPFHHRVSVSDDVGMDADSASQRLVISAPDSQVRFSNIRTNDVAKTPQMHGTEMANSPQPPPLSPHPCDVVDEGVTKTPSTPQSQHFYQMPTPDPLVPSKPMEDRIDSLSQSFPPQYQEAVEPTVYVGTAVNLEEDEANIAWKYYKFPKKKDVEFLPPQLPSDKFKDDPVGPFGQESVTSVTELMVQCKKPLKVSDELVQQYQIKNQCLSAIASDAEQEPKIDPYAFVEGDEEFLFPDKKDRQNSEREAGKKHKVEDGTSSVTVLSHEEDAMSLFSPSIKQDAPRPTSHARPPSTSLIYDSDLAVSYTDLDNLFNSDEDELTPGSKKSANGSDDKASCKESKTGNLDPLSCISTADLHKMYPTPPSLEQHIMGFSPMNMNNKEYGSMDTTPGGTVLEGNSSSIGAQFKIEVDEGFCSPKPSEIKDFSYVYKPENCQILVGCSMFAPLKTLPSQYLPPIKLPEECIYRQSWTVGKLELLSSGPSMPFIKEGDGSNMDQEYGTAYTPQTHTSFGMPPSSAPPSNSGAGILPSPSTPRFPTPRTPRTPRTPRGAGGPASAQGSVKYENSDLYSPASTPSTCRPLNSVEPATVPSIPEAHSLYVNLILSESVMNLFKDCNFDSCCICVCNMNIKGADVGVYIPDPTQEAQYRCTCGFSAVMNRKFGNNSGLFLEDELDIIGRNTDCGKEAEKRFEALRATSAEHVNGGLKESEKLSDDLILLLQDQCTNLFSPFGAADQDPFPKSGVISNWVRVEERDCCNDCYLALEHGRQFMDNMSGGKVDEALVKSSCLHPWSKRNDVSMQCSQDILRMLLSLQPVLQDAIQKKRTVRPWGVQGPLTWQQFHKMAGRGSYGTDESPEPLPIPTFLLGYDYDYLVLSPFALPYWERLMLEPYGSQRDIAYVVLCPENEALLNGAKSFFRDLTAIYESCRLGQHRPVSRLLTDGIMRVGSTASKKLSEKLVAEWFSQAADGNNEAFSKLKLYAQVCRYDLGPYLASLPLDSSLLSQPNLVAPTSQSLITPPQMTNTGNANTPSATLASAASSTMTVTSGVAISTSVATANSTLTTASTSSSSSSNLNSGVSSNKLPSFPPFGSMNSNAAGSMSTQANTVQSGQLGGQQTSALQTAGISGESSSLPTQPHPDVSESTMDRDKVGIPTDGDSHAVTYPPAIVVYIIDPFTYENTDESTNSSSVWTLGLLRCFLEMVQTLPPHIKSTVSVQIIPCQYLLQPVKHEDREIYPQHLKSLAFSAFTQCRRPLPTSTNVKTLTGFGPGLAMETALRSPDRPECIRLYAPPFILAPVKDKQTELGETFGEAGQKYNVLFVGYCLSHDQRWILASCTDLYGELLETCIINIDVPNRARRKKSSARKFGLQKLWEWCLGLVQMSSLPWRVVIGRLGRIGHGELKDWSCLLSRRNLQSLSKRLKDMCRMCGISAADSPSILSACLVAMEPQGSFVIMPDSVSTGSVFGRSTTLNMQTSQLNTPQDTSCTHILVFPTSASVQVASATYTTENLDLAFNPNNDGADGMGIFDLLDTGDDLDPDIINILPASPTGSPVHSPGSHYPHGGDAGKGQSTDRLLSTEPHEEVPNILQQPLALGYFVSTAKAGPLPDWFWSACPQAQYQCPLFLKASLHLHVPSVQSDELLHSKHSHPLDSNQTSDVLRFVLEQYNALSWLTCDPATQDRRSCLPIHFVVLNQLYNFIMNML
UniProt P43121, whole entry, looked up: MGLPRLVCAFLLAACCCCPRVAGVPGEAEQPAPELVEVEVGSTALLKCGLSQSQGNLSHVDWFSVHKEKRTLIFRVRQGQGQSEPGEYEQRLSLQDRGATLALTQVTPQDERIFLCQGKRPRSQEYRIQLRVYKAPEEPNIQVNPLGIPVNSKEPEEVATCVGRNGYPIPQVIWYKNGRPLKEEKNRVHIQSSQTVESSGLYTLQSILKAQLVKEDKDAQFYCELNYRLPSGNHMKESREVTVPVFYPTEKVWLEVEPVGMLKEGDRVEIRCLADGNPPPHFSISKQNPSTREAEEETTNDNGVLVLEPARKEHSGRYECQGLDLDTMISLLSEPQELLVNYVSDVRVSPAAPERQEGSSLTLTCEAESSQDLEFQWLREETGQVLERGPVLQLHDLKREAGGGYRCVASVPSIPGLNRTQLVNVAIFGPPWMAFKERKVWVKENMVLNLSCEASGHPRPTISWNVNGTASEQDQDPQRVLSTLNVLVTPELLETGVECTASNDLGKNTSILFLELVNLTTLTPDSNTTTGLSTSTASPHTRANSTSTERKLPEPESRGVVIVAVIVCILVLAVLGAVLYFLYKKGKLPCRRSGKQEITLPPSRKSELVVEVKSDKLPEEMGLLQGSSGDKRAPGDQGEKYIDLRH
UniProt Q8NEM0: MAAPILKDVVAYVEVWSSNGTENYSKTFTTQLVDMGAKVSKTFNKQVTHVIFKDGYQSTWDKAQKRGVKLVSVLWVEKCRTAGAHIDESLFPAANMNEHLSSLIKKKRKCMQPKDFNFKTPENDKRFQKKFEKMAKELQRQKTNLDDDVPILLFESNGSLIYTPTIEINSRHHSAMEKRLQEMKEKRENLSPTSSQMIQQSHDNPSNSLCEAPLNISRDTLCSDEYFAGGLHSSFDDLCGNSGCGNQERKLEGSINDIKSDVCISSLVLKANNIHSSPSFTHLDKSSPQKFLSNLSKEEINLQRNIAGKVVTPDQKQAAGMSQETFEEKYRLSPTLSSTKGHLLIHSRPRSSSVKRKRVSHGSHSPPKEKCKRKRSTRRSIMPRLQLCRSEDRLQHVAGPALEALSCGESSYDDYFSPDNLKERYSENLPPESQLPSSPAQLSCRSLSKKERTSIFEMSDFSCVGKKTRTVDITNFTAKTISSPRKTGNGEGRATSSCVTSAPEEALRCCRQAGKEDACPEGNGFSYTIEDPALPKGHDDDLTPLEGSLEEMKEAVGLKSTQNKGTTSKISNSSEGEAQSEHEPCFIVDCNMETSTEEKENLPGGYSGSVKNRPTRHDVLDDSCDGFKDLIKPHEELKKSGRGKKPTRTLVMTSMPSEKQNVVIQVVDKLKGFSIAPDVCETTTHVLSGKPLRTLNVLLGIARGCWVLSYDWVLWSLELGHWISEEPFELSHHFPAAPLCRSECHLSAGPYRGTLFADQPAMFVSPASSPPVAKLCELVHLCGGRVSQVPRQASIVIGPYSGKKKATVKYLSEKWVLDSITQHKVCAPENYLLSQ
UniProt P49736, whole entry, looked up: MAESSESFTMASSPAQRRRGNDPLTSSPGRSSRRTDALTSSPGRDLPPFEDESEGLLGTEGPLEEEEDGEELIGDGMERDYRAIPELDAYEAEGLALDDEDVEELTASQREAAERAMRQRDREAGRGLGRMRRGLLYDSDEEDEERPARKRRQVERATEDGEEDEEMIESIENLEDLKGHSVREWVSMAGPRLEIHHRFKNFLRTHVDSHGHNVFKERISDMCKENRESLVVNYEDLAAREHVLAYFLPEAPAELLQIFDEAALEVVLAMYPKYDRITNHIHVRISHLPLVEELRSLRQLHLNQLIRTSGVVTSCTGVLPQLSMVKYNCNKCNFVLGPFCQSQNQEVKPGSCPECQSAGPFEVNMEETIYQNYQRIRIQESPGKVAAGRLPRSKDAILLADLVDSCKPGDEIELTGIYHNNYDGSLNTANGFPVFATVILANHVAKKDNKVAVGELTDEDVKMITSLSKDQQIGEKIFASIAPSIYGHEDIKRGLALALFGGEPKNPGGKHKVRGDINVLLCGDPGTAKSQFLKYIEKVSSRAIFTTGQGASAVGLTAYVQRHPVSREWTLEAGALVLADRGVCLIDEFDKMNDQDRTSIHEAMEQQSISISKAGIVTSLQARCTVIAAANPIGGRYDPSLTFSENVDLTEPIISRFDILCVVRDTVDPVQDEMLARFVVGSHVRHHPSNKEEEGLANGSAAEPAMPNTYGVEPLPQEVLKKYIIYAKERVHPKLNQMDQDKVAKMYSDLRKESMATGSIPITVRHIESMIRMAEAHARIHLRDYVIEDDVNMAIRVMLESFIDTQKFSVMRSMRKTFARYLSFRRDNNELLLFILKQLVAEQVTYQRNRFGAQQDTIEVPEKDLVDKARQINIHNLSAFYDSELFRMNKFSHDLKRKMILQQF
UniProt Q7L2J0: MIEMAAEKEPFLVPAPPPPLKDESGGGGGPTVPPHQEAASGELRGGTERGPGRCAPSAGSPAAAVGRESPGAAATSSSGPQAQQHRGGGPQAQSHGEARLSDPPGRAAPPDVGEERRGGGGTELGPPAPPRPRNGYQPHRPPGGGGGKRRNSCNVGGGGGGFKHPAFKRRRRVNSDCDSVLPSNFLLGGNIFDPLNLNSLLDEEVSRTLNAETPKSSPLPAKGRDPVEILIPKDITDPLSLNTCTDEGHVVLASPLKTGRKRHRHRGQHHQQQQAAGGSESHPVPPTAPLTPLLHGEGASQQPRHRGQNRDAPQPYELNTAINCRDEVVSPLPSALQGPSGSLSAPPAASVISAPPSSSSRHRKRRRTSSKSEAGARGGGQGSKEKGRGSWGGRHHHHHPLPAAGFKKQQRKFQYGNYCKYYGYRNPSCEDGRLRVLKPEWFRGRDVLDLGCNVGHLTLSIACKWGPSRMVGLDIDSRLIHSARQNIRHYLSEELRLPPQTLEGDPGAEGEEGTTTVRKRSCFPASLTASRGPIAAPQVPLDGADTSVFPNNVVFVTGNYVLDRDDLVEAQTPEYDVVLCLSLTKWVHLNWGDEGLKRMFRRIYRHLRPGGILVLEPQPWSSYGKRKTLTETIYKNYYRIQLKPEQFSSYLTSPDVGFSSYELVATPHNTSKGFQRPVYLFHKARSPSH
UniProt O95568: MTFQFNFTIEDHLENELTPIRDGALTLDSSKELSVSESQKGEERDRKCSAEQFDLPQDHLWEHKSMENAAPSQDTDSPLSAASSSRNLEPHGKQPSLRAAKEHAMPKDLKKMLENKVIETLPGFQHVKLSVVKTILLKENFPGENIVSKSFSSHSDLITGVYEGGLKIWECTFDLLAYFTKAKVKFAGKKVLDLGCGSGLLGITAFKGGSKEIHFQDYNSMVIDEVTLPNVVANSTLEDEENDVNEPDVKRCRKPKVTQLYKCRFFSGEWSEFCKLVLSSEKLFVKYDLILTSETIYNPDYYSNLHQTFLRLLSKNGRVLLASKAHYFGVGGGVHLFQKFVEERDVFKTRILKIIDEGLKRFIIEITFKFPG
UniProt Q68D91: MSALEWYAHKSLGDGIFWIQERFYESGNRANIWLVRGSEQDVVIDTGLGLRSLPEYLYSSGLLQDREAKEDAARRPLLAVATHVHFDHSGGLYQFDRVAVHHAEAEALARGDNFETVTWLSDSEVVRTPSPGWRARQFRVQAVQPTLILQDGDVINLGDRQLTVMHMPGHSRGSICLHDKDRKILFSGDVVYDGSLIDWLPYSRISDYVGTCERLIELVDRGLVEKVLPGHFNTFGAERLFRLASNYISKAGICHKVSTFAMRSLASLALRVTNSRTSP
UniProt Q8NE86: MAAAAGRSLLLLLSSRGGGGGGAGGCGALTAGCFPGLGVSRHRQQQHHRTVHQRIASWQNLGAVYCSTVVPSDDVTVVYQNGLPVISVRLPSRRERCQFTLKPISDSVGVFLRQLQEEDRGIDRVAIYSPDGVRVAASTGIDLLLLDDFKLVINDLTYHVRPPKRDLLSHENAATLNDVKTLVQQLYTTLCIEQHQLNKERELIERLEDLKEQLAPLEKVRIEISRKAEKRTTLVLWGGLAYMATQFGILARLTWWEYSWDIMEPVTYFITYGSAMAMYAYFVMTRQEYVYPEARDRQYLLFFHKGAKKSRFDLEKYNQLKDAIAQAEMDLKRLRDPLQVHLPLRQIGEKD
UniProt Q16626: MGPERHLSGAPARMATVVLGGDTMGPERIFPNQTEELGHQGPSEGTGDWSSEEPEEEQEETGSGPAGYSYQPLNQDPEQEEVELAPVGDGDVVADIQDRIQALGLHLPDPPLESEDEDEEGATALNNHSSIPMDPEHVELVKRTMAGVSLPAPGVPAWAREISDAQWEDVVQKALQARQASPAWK
UniProt Q9BTT4: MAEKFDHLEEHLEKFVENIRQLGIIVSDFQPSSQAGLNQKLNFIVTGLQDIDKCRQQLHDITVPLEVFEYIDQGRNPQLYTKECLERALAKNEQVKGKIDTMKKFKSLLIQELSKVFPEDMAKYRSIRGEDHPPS

How the values were obtained:
Test in all cases: log2 fold change, soluble protein after heating vs DMSO (PISA); higher = thermal stabilisation; K562 lysate, 10 uM; active = over 0.2 and 3.5 SD of the protein, either way, in both replicates (recomputed)
[1] = compound: CN1CC[C@H](c2c(O)cc(O)c3c(=O)cc(-c4ccccc4Cl)oc23)[C@H](O)C1 [alvocidib]
Procedure, shortened: (§1)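 Following dounce homogenisation of K562 pellets in PBS pH 7.4 with 1 mM MgCl2, crude extract at 1 mg/mL protein was incubated for 30 min with 10 μM compound. Aliquots were then heated for 3 min over 48°C-58°C and pooled, NP-40 was added to 0.5% at 4°C, and soluble protein was recovered as the supernatant at 21,000xg for 90 min. Channel-sum-equalised TMTpro 16plex LC-MS/MS quantified this protein. Each value, from duplicates, is a log-two fold change in thermal stability relative to solvent controls.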

[2] = compound: CN1CCc2c(c3ccccc3n2Cc2ccc(C(=O)NO)cc2)C1 [Tubastatin A]
Procedure, shortened: as §1

[3] = compound: CNC(=O)C1=CC=CC=C1NC2=NC(=NC=C2Cl)NC3=C(C=C(C=C3)N4CCOCC4)OC
Procedure, shortened: as §1

[4] = compound: CNC(=O)c1ccc(Nc2ncc(C(F)(F)F)c(NCc3nccnc3N(C)S(C)(=O)=O)n2)cc1 [defactinib]
Procedure, shortened: as §1

[5] = compound: CNc1nc(-c2ccc3c(N)n[nH]c3c2)cc(N2C[C@@H](C(=O)NC3CCCCC3)CC[C@H]2C)n1
Procedure, shortened: as §1

[6] = compound: COC(=O)N[C@@H](C)CNc1nccc(-c2cn(C(C)C)nc2-c2cc(Cl)cc(NS(C)(=O)=O)c2F)n1 [encorafenib]
Procedure, shortened: as §1

[7] = compound: COC(=O)[C@H](CCSC)NC(=O)C1=C(C=C(C=C1)NC[C@H](CS)N)C2=CC=CC=C2
Procedure, shortened: as §1

[8] = compound: COc1cc(Nc2ncc3c(n2)-c2ccc(Cl)cc2C(c2c(F)cccc2OC)=NC3)ccc1C(=O)O [alisertib]
Procedure, shortened: as §1

[9] = compound: COc1cc2nc(-c3cc(F)ccc3O)nc(N[C@@H]3CNC[C@H]3C(C)(C)O)c2cc1OC
Procedure, shortened: as §1

[10] = compound: COc1cc2ncnc(Nc3ccc(F)c(Cl)c3)c2cc1OCCCN1CCOCC1 [gefitinib]
Procedure, shortened: as §1

Measured: log2 fold change

MAZ isoform 2 (UniProt P56270)
inactive: [1] -0.038 | [2] 0.019 | [3] 0.094 | [4] -0.028 | [5] 0.12 | [6] 0.002 | [7] 0.003 | [8] 0.031 | [9] 0.024 | [10] -0.014

MED13 (UniProt Q9UHV7)
inactive: [1] -0.003 | [2] -0.05 | [3] -0.015 | [4] -0.019 | [5] -0.009 | [6] 0.011 | [7] -0.03 | [8] -0.01 | [9] 0.003 | [10] 0.045

MECP2 isoform 2 (UniProt P51608)
inactive: [1] -0.045 | [2] 0.04 | [3] 0.032 | [4] -0.026 | [5] 0.052 | [6] 0.089 | [7] 0.01 | [8] -0.039 | [9] -0.017 | [10] -0.021

MED14 (UniProt O60244)
inactive: [1] -0.017 | [2] -0.068 | [3] 0.051 | [4] -0.008 | [5] 0.015 | [6] 0.012 | [7] 0.003 | [8] -0.028 | [9] -0.018 | [10] 0.001

MFN2 (UniProt O95140)
inactive: [1] -0.006 | [2] -0.107 | [3] 0.014 | [4] 0.058 | [5] -0.034 | [6] -0.016 | [7] -0.094 | [8] 0.004 | [9] 0.023 | [10] -0.019

MCAM (UniProt P43121)
inactive: [1] -0.024 | [2] 0.052 | [3] 0.006 | [4] -0.041 | [5] 0.052 | [6] -0.031 | [7] -0.016 | [8] -0.003 | [9] 0.022 | [10] 0.019

MCPH1 (UniProt Q8NEM0)
inactive: [1] 0.214

MATR3 (UniProt P43243)
inactive: [1] -0.054 | [2] -0.094 | [3] 0.02 | [4] -0.03 | [5] 0.006 | [6] 0.092 | [7] -0.015 | [8] 0.002 | [9] 0.025 | [10] 0.046

MDM2 isoform 11 (UniProt Q00987)
inactive: [1] -0.127 | [2] 0.15 | [3] 0.041 | [4] 0.158

MCM2 (UniProt P49736)
inactive: [1] -0.01 | [2] -0.04 | [3] 0.026 | [4] 0.018 | [5] 0.001 | [6] -0.006 | [7] 0.05 | [8] 0.001 | [9] 0.004 | [10] 0

MERTK (UniProt Q12866)
inactive: [1] 0.03 | [2] 0.03 | [3] -0.015 | [4] -0.023 | [5] -0.045 | [6] -0.077 | [7] -0.052 | [8] -0.013 | [9] -0.03 | [10] 0.156

METAP2 (UniProt P50579)
inactive: [1] -0.02 | [2] -0.017 | [3] 0.019 | [4] 0.01 | [5] 0.039 | [6] -0.003 | [7] -0.017 | [8] 0.002 | [9] 0.002 | [10] -0.102

MED7 (UniProt O43513)
inactive: [1] -0.058 | [2] 0.029 | [3] -0.012 | [4] 0.048 | [5] 0.06 | [6] 0.039 | [7] -0.311 | [8] -0.109 | [9] 0.04 | [10] -0.349

MEPCE (UniProt Q7L2J0)
inactive: [1] 0.003 | [2] -0.032 | [3] -0.004 | [4] 0.003 | [5] -0.032 | [6] 0.015 | [7] 0.131 | [8] -0.01 | [9] -0.029 | [10] 0.016

MCRIP1 (UniProt I3L4Q0)
inactive: [1] 0.02 | [2] 0.055 | [3] 0.011 | [4] 0.032 | [5] -0.012 | [6] 0.024 | [7] -0.03 | [8] 0.03 | [9] -0.007 | [10] -0.037

METTL18 (UniProt O95568)
inactive: [1] -0.035 | [2] -0.006 | [3] 0.025 | [4] 0.038 | [5] 0.083 | [6] 0.002 | [7] -0.057 | [8] 0.04 | [9] -0.021 | [10] -0.027

MBLAC2 (UniProt Q68D91)
inactive: [1] -0.011 | [2] 0.033 | [3] 0.041 | [4] 0.059 | [5] -0.096 | [6] 0.06 | [7] -0.003 | [8] 0.005 | [9] 0.013 | [10] 0.033

MCM3 isoform 2 (UniProt P25205)
inactive: [1] 0.018 | [2] 0 | [3] 0.01 | [4] 0.014 | [5] -0.008 | [6] -0.002 | [7] -0.021 | [8] 0.01 | [9] -0.007 | [10] -0.018

MCU (UniProt Q8NE86)
inactive: [1] 0.011 | [2] 0.045 | [3] 0.026 | [4] 0.037 | [5] -0.067 | [6] 0.016 | [7] -0.035 | [8] 0.01 | [9] -0.063 | [10] -0.091

MEA1 (UniProt Q16626)
inactive: [1] 0 | [2] 0.093 | [3] 0.077 | [4] 0.035 | [5] 0.039 | [6] -0.046 | [7] 0.032 | [8] 0.065 | [9] -0.085 | [10] 0.059

MED30 (UniProt Q96HR3)
inactive: [1] -0.004 | [2] -0.015 | [3] 0.012 | [4] 0.083 | [5] 0.053 | [6] 0.003 | [7] -0.129 | [8] -0.012 | [9] -0.012 | [10] 0.018

MEMO1 (UniProt Q9Y316)
inactive: [1] -0.012 | [2] -0.004 | [3] 0.02 | [4] -0.025 | [5] -0.043 | [6] -0.02 | [7] -0.044 | [8] -0.003 | [9] -0.022 | [10] -0.056

MFSD1 isoform 6 (UniProt Q9H3U5)
inactive: [1] 0.033 | [2] -0.052 | [3] 0.038 | [4] -0.072 | [5] 0.028 | [6] 0.015 | [7] -0.029 | [8] 0.064 | [9] -0.008 | [10] 0.018

MED1 (UniProt Q15648)
inactive: [1] -0.01 | [2] -0.072 | [3] 0.011 | [4] -0.038 | [5] 0.047 | [6] 0.055 | [7] -0.036 | [8] -0.011 | [9] 0 | [10] 0.012

MED10 (UniProt Q9BTT4)
inactive: [1] 0.038 | [2] 0.041 | [3] 0.042 | [4] 0.068 | [5] 0.045 | [6] 0.11 | [7] -0.185 | [8] 0.082 | [9] -0.03 | [10] -0.045

METTL1 (UniProt Q9UBP6)
inactive: [1] -0.024 | [2] -0.008 | [3] -0.016 | [4] 0.023 | [5] -0.035 | [6] -0.009 | [7] 0.058 | [8] -0.032 | [9] -0.013 | [10] 0

MBNL1 isoform 5 (UniProt Q9NR56)
inactive: [1] -0.014 | [2] 0.013 | [3] -0.028 | [4] 0.011 | [5] -0.033 | [6] 0.036 | [7] -0.145 | [8] 0.029 | [9] -0.024 | [10] -0.006

MCL1 (UniProt Q07820)
inactive: [1] -0.041 | [2] 0.003 | [3] -0.015 | [4] 0.021 | [5] -0.08 | [6] 0.107 | [7] -0.024 | [8] 0.057 | [9] -0.135 | [10] -0.085

MDM1 (UniProt Q8TC05)
inactive: [1] -0.527 | [2] 0.007 | [3] -0.071 | [4] -0.126 | [5] -0.328 | [6] 0 | [7] -0.12 | [8] 0.018 | [9] -0.031 | [10] 0.14

MED8 isoform 2 (UniProt Q96G25)
inactive: [1] 0.026 | [2] -0.048 | [3] 0.023 | [4] -0.009 | [5] 0.045 | [6] 0.056 | [7] -0.113 | [8] -0.07 | [9] 0.059 | [10] -0.038

Two entries drawn at random from those above, as already listed:
MDM1 (UniProt Q8TC05)
inactive: [1] -0.527 | [2] 0.007 | [3] -0.071 | [4] -0.126 | [5] -0.328 | [6] 0 | [7] -0.12 | [8] 0.018 | [9] -0.031 | [10] 0.14

MCM3 isoform 2 (UniProt P25205)
inactive: [1] 0.018 | [2] 0 | [3] 0.01 | [4] 0.014 | [5] -0.008 | [6] -0.002 | [7] -0.021 | [8] 0.01 | [9] -0.007 | [10] -0.018

Remaining list, next part:

MBD3 (UniProt O95983)
inactive: [1] -0.064 | [2] -0.023 | [3] 0.01 | [4] 0.113 | [5] -0.043 | [6] 0.048 | [7] -0.032 | [8] 0.008 | [9] -0.003 | [10] -0.045
